Laboratory results taken from article PMC12615396.
No constants are given. Whether binding was seen depends on the method and setting. In cells and extracts the contact can be indirect. Some entries that bind do so weakly or less than the wild type.

By UniProt entry, the sequences of proteins in these tests, tags left out.
UniProt Q13526: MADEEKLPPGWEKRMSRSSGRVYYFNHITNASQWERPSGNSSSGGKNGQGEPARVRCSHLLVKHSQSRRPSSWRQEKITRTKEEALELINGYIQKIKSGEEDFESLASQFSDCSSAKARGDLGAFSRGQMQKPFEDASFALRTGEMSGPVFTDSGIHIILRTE
UniProt Q04206: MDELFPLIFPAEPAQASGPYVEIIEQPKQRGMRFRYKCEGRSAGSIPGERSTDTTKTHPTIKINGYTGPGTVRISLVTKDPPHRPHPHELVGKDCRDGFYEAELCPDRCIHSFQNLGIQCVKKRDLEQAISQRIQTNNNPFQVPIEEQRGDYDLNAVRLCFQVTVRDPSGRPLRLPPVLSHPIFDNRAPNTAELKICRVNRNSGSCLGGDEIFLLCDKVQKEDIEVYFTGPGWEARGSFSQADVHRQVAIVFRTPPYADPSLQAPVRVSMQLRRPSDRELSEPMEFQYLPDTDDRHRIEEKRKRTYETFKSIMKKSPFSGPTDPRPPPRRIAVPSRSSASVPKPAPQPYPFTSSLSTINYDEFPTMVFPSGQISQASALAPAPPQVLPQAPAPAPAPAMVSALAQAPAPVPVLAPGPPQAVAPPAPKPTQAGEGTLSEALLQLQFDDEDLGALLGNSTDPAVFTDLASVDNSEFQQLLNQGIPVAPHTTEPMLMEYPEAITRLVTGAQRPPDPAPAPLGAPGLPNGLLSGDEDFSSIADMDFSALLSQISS

Target: Pin1 (human (endogenous in SW480 and HT29)) (UniProt Q13526)
Test: co-IP; endogenous co-IP from SW480 and HT29 lysates (IP lysis buffer with phosphatase and protease inhibitors); 2 µg anti-Pin1 antibody 12 h at 4 °C, Protein A/G agarose beads 2 h at 4 °C, five washes, western blotting

Substance: p65 (from UniProt Q04206 1-551)
- binding: binds
